PubChem BioAssay AID602196 | INSERM | 2012
This is an unselected part of about 23,000 reagents. Of all reagents, 455 (2%) are marked active. 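Active includes both protection and sensitisation; some change values fall well beyond the stated -50 to +50 range.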 Not given: the amount of reagent.

- Assay: 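Modifiers of cisplatin sensitivity in A549 cells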
- Cell system: human A549 lung cancer cells
- Reagents: siRNA pair against human genes
- Timing: 48 h transfection before cisplatin; time from cisplatin to read-out not stated
- Conditions: cisplatin at a dose killing half of control-siRNA cells; exact dose and duration not given
- Measurement: 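Shift in cisplatin death relative to control siRNA, from -50 (all cells die) to +50 (no cells die); siRNAs harmful on their own scored 0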
- Reading the numbers: two-siRNA summed score (-2 to +2): higher = both siRNAs protect from cisplatin killing; -2 means both sensitise; mean protection from cisplatin (shift in death) and protection from cisplatin (shift in death), siRNA C and protection from cisplatin (shift in death), siRNA D: higher = protection from cisplatin killing
- Call rule: 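siRNAs harmful alone (LDH or WST-1) get 0; others get +1 for less and -1 for more cisplatin killing; genes are active when the two siRNAs give the same sign, summing to ±2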
- Calls: active = both siRNAs shift cisplatin killing the same way; inactive = no consistent shift, or siRNA harmful alone

gene | two-siRNA summed score (-2 to +2) | mean protection from cisplatin (shift in death) (%) | protection from cisplatin (shift in death), siRNA C (%) | protection from cisplatin (shift in death), siRNA D (%) | activity call
TMEM160 | 0 | 5.6 | 9.7 | 1.6 | inactive
NEUROG1 | 0 | -1 | 2.3 | -4.2 | inactive
THUMPD3-AS1 | 0 | 4.3 | 8.2 | 0.3 | inactive
M6PR | 0 | 10.2 | 22.8 | -2.4 | inactive
TINCR | -2 | -17.4 | -22.8 | -12 | active
TTLL3 | 0 | 2.2 | 15.5 | -11.1 | inactive
LOC347275 | 0 | 3.6 | -3 | 10.3 | inactive
LOC339263 | 0 | -8 | -6.5 | -9.6 | inactive
FLT3 | 0 | 8.7 | 15.9 | 1.5 | inactive
LOC441509 | 0 | 5.4 | 1.6 | 9.2 | inactive
MBOAT7 | 0 | 1.1 | -1.7 | 3.8 | inactive
LOC441876 | 0 | 16.2 | 1.3 | 31.2 | inactive
LOC442571 | 0 | 4.6 | 8.8 | 0.3 | inactive
SNX18 | 0 | 10.8 | 6.4 | 15.3 | inactive
INPP5K | 0 | 12.9 | 9.2 | 16.5 | inactive
LOC345430 | 0 | 1.8 | -10.2 | 13.9 | inactive
LINC02908 | 0 | -1.2 | 7.5 | -9.9 | inactive
LOC442100 | -1 | -7 | 4.6 | -18.7 | inactive
ESS2 | 0 | -5 | 1.3 | -11.2 | inactive
FLJ16287 | 0 | 17.1 | 18.8 | 15.3 | inactive
MUSTN1 | 1 | 10.2 | 2.7 | 17.8 | inactive
SWI5 | 1 | 21.7 | 9.4 | 34 | inactive
MRPL20-AS1 | 0 | 0.7 | -6.2 | 7.5 | inactive
